Earlier results, collected in patent US20110257220A1, “3,11 b-cis-Dihydrotetrabenazine for the Treatment of Schizophrenia and Other Psychoses” (CAMBRIDGE LABORATORIES (IRELAND) LIMITED, priority 2005, published 2011).
At least one structure is not confirmed: it was looked up by name or label, or the drawing left a doubt.

System: female hooded-Lister rats
Details: clozapine 1-5 mg/kg; Grayson and Neill, 2005a; cited from earlier work

CN1CCN(C2=Nc3cc(Cl)ccc3Nc3ccccc32)CC1 [clozapine]
Deficit induced by sub-chronic PCP in NOR paradigm: significantly improved
